Test results reported in article PMC5481839.
Results are given in words; binding and its absence hold for the method and conditions named. Binding seen in cells or lysates may run through a third protein. Some entries that bind do so weakly or less than the wild type.

Amino acid sequences for entries named in this document (tags omitted).
UniProt Q8TEK3: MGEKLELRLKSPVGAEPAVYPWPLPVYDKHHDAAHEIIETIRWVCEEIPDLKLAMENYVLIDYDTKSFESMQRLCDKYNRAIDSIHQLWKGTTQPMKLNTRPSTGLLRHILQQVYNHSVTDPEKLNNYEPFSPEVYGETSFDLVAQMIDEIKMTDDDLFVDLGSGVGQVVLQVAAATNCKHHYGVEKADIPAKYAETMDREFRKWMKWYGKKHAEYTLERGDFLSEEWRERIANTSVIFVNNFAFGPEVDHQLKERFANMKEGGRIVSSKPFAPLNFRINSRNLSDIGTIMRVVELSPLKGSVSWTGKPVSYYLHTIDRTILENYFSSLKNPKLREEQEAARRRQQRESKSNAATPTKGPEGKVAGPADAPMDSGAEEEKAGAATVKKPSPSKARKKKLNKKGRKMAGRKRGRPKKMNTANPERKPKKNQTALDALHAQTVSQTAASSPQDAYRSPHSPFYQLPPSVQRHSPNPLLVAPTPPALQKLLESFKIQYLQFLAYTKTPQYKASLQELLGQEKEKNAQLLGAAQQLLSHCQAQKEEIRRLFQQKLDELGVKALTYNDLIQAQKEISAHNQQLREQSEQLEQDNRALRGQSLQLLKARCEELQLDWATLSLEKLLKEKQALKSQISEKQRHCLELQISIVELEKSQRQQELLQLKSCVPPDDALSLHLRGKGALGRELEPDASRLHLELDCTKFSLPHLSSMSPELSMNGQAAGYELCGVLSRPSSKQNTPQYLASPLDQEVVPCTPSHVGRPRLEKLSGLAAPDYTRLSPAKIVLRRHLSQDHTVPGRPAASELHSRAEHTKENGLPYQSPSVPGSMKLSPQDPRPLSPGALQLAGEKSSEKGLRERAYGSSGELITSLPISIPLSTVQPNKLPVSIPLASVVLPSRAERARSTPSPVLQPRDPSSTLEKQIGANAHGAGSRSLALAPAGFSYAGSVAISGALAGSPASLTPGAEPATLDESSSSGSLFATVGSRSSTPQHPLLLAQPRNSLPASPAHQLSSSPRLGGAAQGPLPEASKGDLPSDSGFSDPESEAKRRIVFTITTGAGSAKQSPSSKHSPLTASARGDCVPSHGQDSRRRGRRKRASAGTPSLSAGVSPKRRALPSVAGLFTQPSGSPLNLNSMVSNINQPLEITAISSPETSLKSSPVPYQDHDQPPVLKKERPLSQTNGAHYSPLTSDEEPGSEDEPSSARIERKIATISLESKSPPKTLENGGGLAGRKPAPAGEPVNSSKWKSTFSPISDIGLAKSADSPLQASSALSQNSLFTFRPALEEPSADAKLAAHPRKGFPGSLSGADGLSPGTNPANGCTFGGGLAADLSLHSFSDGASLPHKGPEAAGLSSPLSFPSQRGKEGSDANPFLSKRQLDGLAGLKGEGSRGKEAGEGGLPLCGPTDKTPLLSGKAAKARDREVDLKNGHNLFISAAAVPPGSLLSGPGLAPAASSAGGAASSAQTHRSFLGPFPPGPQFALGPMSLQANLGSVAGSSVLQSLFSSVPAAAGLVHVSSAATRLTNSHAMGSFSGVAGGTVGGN
UniProt P35222: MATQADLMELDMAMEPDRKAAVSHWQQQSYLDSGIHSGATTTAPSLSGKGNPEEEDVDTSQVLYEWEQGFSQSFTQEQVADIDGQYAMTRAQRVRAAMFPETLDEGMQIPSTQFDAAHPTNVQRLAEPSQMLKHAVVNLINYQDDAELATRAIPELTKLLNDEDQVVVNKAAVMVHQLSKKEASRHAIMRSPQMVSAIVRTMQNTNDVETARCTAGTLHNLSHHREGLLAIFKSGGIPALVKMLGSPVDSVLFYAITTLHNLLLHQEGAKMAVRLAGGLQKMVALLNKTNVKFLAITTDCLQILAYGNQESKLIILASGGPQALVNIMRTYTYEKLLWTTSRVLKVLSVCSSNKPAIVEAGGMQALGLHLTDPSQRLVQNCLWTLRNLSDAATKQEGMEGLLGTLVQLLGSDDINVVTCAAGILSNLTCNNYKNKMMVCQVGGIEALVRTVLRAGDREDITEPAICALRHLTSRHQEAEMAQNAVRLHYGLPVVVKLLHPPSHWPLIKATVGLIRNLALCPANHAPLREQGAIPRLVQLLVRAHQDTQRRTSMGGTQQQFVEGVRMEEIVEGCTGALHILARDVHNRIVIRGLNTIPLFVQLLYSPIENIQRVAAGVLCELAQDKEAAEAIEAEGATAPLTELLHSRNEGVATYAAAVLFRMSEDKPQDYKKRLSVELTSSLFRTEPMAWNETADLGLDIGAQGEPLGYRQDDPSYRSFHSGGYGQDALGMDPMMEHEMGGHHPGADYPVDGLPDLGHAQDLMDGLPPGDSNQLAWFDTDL

Legend:
[1] = biological target: Disruptor of telomeric silencing 1-like (DOT1L) (human (endogenous in human articular chondrocytes)) (UniProt Q8TEK3); experiment: condition: only cells treated with the DOT1L inhibitor EPZ-5676; co-IP; as a1, but human articular chondrocytes treated with the DOT1L inhibitor EPZ-5676
[2] = biological target: Disruptor of telomeric silencing 1-like (DOT1L) (human (endogenous in human articular chondrocytes)) (UniProt Q8TEK3); experiment: co-IP; Pierce Co-Immunoprecipitation Kit; anti-DOT1L antibody immobilised on the column; 100 μg of lysate proteins of human articular chondrocytes incubated overnight at 4 °C; elution at pH 3; Western blot; cells with or without Wnt activation by LiCl

## β-catenin (from UniProt P35222 1-781)
[1]
  binding: no binding
[2]
  binding: binds
